Reference: publication PMC5136554
Results are given in words; binding and its absence hold for the method and conditions named. In cells and extracts the contact can be indirect. Some entries that bind do so weakly or less than the wild type.

The chains behind the UniProt entries cited, without tags or fusion partners.
UniProt P09874: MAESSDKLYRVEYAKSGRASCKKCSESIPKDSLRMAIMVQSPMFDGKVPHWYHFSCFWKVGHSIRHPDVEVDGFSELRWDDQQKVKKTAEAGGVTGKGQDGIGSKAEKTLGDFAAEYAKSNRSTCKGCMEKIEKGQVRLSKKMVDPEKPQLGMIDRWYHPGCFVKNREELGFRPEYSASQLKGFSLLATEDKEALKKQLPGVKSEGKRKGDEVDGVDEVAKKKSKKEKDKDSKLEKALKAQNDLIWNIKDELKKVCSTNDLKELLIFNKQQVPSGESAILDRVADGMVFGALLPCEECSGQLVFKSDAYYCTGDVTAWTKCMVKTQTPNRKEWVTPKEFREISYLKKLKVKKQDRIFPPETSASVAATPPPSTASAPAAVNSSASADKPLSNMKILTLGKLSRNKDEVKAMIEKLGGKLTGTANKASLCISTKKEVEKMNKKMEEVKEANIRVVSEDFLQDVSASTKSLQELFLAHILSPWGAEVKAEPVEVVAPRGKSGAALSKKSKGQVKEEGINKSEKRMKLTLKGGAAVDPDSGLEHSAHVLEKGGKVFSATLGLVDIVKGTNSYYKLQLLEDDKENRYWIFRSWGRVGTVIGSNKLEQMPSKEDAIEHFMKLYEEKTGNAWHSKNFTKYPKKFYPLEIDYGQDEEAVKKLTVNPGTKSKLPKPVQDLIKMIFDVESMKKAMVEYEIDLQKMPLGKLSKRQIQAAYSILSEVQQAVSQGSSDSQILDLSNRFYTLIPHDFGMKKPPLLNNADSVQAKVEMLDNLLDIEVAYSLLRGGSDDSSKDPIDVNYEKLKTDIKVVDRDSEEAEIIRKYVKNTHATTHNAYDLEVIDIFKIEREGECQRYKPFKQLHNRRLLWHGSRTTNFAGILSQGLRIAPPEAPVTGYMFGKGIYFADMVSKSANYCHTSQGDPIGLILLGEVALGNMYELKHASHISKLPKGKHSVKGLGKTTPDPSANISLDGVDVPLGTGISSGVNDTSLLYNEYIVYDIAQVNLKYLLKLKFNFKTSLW
UniProt P12956: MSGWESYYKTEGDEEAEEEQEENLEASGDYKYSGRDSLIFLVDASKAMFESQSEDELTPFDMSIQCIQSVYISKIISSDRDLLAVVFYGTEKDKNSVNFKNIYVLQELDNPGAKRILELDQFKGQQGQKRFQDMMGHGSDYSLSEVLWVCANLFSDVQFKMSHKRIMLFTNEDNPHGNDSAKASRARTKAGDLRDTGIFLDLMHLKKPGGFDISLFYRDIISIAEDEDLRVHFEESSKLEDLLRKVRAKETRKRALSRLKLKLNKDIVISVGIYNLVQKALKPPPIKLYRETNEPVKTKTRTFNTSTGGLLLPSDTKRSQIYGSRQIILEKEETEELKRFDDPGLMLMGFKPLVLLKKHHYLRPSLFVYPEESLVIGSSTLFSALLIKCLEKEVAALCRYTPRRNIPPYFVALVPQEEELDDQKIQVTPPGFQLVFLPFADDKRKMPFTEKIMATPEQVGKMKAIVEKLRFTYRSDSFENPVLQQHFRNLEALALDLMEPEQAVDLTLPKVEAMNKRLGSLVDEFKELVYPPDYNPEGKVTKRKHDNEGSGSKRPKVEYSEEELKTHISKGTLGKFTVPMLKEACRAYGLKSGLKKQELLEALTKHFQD

Molecular target: T1, IRF1 (human (endogenous in SK-Hep-1)) (UniProt P10914)
T1 sequence: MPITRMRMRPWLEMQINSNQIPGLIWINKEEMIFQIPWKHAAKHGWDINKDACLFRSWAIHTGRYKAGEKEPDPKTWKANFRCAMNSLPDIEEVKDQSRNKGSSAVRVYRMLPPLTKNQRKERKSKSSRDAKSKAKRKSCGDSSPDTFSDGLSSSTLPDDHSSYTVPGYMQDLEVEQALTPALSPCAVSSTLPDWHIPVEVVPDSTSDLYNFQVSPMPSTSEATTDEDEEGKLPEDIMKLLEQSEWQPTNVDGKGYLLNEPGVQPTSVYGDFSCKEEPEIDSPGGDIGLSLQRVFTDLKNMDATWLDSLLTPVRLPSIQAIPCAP
Assay: co-IP

Row | binding | Substance
1 | binds | PARP1 (from UniProt P09874 1-1014)
2 | binds | Ku70 (from UniProt P12956 1-609)
